Results published in patent publication US20250198990A1 (Stanford University, published 2025).
These are yes or no findings as the source states them, for the method shown. Some entries that bind do so weakly or less than the wild type. Where a sequence is shown, tags or fusion partners need not be part of it.

Legend:
[1] = target: Human LAG-3 fused to CFP or YFP, on Expi293F cells (human) (UniProt P18627); test: flow-FRET; self-association
[2] = target: Human LAG-3 fused to CFP or YFP, on Expi293F cells (human) (UniProt P18627); test: flow-FRET in Expi293F cells; self-association
[3] = target: Human LAG-3 fused to CFP or YFP, on Expi293F cells (human) (UniProt P18627); test: flow-FRET in Expi293 cells; self-association

Measured: binding

B1: Human LAG-3 fused to CFP or YFP, on Expi293F cells (receptor, not shown: large carriers)
chain: VPVVWAQEGAPAQLPCSPTIPLQDLSLLRRAGVTWQHQPDSGPPAAAPGHPLAPGPHPAAPSSWGPRPRRYTVLSVGPGGLRSGRLPLQPRVQLDERGRQRGDFSLWLRPARRADAGEYRAAVHLRDRALSCRLRLRLGQASMTASPPGSLRASDWVILNCSFSRPDRPASVHWFRNRGQGRVPVRESPHHHLAESFLFLPQVSPMDSGPWGCILTYRDGFNVSIMYNLTVLGLEPPTPLTVYAGAGSRVGLPCRLPAGVGTRSFLTAKWTPPGGGPDLLVTGDNGDFTLRLEDVSQAQAGTYTCHIHLQEQQLNATVTLAIITVTPKSFGSPGSLGKLLCEVTPVSGQERFVWSSLDTPSQRSFSGPWLEAQEAQLLSQPWQCQLYQGERLLGAAVYFTELSSPGAQRSGRAPGALPAGHLLLFLILGVLSLLLLVTGAFGFHLWRRQWRPRRFSALEQGIHPPQAQSKIEELEQEPEPEPEPEPEPEPEPEPEQL
binds: all assays above
